Experimental data from the supplement of paper PMC7877785.
± gives the uncertainty stated by the source. The uncertainty is large for many entries.

Assay: self-splicing fitness, log relative to wild type (ln ratio); higher = more splicing; Tetrahymena group I intron in knt gene, E. coli kanamycin selection, DiMSum; sequences stand for … in CUCUCU…GGAGGGAAAAGUUAUCAGGCAUGCACCUGGUAGCUAGUCUUUAAACCAAUAGAUUGCAUCGGUUUAAAAGGCAAGACCGUCAAAUUGCGGGAAAGGGGUCAACAGCCGUUCAGUACCAAGUCUCAGGGGAAACUUUGAGAUGGCCUUGCAAAGGGUAUGGUAAUAAGCUGACGGACAUGGUCCUAACCACGCAGCCAAGUCCUAAGUCAACAGAUCUUCUGUUGAUAUGGAUGCAGUUCACAGACUAAAUGUCGGUCGGGGAAGAUGUAUUCUUCUCAUAAGAUAUAGUCGGACCUCUCCUUAAUGGGAGCUAGCGGAUGAAGUGAUGCAACACUGGAGCCGCUGGGAACUAAUUUGUAUGCGAAAGUAUAUUGAUUAGUUUUGGAGUACUCGUGGUCG
In short: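 Pooled colonies went to amplicon sequencing on an Illumina HiSeq 2500 after six replicate transformations. The plates were LB agar with 100 μg/mL carbenicillin, 50 μM IPTG and 0.2% rhamnose, with or without 25 μg/mL kanamycin, incubated overnight at 37°C or 30°C. The E. coli BL21(DE3) library had all eight P1ex-region intron nucleotides randomised, the intron placed in the knt kanamycin-resistance gene on pET-22b(+). DiMSum fitness is the error-weighted combination of replicate fold changes, kanamycin against none, normalised to wild type.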

Row | Sequence | self-splicing fitness (ln) (30 °C) | self-splicing fitness (ln) (37 °C)
1 | UGGUAGCAAUAUUACGUUGC | -3.12 ± 0.53 | –
2 | UCUUAGCAAUAUUACGGCUC | -3.3 ± 0.6 | -2.2 ± 1.1
3 | CCGGAGCAAUAUUACGCGUC | -3.7 ± 0.78 | –
4 | GGGCAGCAAUAUUACGAGAA | -3.05 ± 0.47 | -1.87 ± 0.3
5 | CUCGAGCAAUAUUACGGCUU | – | -2.3 ± 1.1
6 | UCUUAGCAAUAUUACGAUGC | – | -2.19 ± 0.56
7 | UAAAAGCAAUAUUACGCCGC | -3.68 ± 0.6 | –
8 | CUCUAGCAAUAUUACGGACU | -2.33 ± 0.78 | –
9 | GGUCAGCAAUAUUACGCUGG | – | -1.33 ± 1.2
10 | CCGGAGCAAUAUUACGGUGC | -3.54 ± 0.52 | –
11 | UUGCAGCAAUAUUACGAAUC | -2.66 ± 0.55 | –
12 | AGGGAGCAAUAUUACGUUAC | -4.25 ± 0.74 | –
13 | UCAUAGCAAUAUUACGGAAG | -3.74 ± 0.59 | –
14 | UAGGAGCAAUAUUACGCUAU | -2.36 ± 1.2 | –
15 | UAUGAGCAAUAUUACGAUGC | -3.05 ± 0.6 | -1.17 ± 0.59
16 | GAAUAGCAAUAUUACGACGU | -0.363 ± 0.11 | 0.265 ± 0.13
17 | GGGUAGCAAUAUUACGCCGC | -0.388 ± 0.58 | –
18 | UUUGAGCAAUAUUACGAUAU | -4.12 ± 0.59 | –
19 | CGUGAGCAAUAUUACGUACC | -1.26 ± 0.53 | -3.72 ± 0.73
20 | GGAGAGCAAUAUUACGCACU | -2.77 ± 0.49 | -1.94 ± 0.46
21 | UCCGAGCAAUAUUACGCCGU | – | -3.97 ± 0.52
22 | GUCUAGCAAUAUUACGGACU | -3.7 ± 0.52 | -2.62 ± 0.63
23 | UUUGAGCAAUAUUACGAAGU | -4.58 ± 0.72 | –
24 | GUCGAGCAAUAUUACGAGCC | – | -2 ± 0.56
25 | UCGUAGCAAUAUUACGCUCC | – | -2.39 ± 0.63
26 | UAUUAGCAAUAUUACGAACC | – | -1.25 ± 0.84

Row | Sequence | self-splicing fitness (ln) (30 °C) | self-splicing fitness (ln) (37 °C)
27 | GUUUAGCAAUAUUACGGGCC | – | -0.681 ± 1.4
28 | AAGCAGCAAUAUUACGCCUC | -3.83 ± 1 | –
29 | CUGUAGCAAUAUUACGAACU | – | -2.73 ± 0.54
30 | CUUGAGCAAUAUUACGAAUA | – | -2.5 ± 0.55
31 | CCGGAGCAAUAUUACGAGAC | – | -3.5 ± 0.52
32 | ACGUAGCAAUAUUACGGCAC | -3.12 ± 0.54 | –
33 | GGAGAGCAAUAUUACGUGCU | – | -3.71 ± 0.52
34 | GUGUAGCAAUAUUACGCGCA | -0.244 ± 0.88 | -0.33 ± 0.68
35 | GCGUAGCAAUAUUACGCUCA | -2.52 ± 0.64 | –
36 | GAAGAGCAAUAUUACGAAUG | – | -2.29 ± 1.1
37 | AACGAGCAAUAUUACGGGGA | -2.72 ± 0.21 | -3.6 ± 0.34
38 | CCUGAGCAAUAUUACGUAAA | -5.76 ± 1 | –
39 | CUGUAGCAAUAUUACGAGUC | -4.09 ± 0.52 | –
40 | CCGGAGCAAUAUUACGUGGC | – | -2.47 ± 1.1
41 | UUCUAGCAAUAUUACGCGAC | – | -1.53 ± 0.69
42 | CAAUAGCAAUAUUACGCACC | – | -1.98 ± 0.51
43 | ACUUAGCAAUAUUACGUCGC | -4.36 ± 0.59 | –
44 | CAGCAGCAAUAUUACGCGAA | -2.55 ± 0.13 | -1.82 ± 0.15
45 | AUUUAGCAAUAUUACGGGGA | -2.36 ± 0.78 | -1.94 ± 0.66
46 | UUGGAGCAAUAUUACGAACG | -1.93 ± 1.2 | –
47 | ACUCAGCAAUAUUACGUCUA | -0.845 ± 0.081 | -0.152 ± 0.076
48 | CUCGAGCAAUAUUACGAGAC | -3.75 ± 0.73 | -2.6 ± 0.54
49 | UCUUAGCAAUAUUACGCCCA | -2.47 ± 1.1 | –
50 | AGACAGCAAUAUUACGCACG | -2.11 ± 0.12 | -0.922 ± 0.13
51 | GGUGAGCAAUAUUACGAAGC | -3.96 ± 0.76 | 0.0981 ± 0.87
52 | UGGUAGCAAUAUUACGGACU | -0.67 ± 0.17 | 0.844 ± 0.2
